The assay relates to Salmonella enterica serovar Typhimurium SL1344. The assay can be described thus: normalized intracellular growth (luminescence, IQM-normalized) in RAW264.7 macrophages (fraction of plate interquartile mean); higher = more bacterial growth (less inhibition). The settings on record: 10 µM.

± gives the standard deviation of the averaged measurements. The full ranking holds about 1,600 compounds; the median of “normalized intracellular growth (luminescence, IQM-normalized) in RAW264.7 macrophages” is about 1, and the lowest 2% start at about 0.43. This is one part of the list.

For the compound `CC(C)COCC(CN(Cc1ccccc1)c1ccccc1)N1CCCC1` (stereo unspecified), the normalized intracellular growth turned out to be 0.89 ± 0.017 (time point: T3 (3 h)) and 0.898 ± 0.077 (time point: Tfinal (~6 h)).
The corresponding values for `C=NC(C(=O)NC1C(=O)N2C1SC(C)(C)C2C(=O)O)c1ccccc1` (stereo unspecified) are 0.959 ± 0.021 and 1.04 ± 0.011.
Taken in the same sequence, the figures for `CNS(=O)(=O)Cc1ccc2[nH]cc(CCN(C)C)c2c1` were 1.09 ± 0.054 and 1.09 ± 0.25.
The corresponding values for `O=C(CCCl)NCc1ccccc1` are 0.995 ± 0.01 and 1.01 ± 0.091.
Turning to `CN[C@H](CC(C)C)C(=O)N[C@H]1C(=O)N[C@@H](CC(N)=O)C(=O)N[C@H]2C(=O)N[C@H]3C(=O)N[C@H](C(=O)N[C@H](C(=O)O)c4cc(O)cc(O)c4-c4cc3ccc4O)[C@H](O)c3ccc(c(Cl)c3)Oc3cc2cc(c3O[C@@H]2O[C@H](CO)[C@@H](O)[C@H](O)[C@H]2O[C@H]2C[C@](C)(N)[C@H](O)[C@H](C)O2)Oc2ccc(cc2Cl)[C@H]1O`, the normalized intracellular growth was determined as 0.84 ± 0.079 (time point: T3 (3 h)) and 0.897 ± 0.026 (time point: Tfinal (~6 h)).
Consider `NS(=O)(=O)c1cc2c(cc1Cl)N=CNS2(=O)=O`, for which the normalized intracellular growth reads like this: (time point: T3 (3 h)) 1.03 ± 0.05; (time point: Tfinal (~6 h)) 1.2 ± 0.073.
As to `Clc1ccc(COC(Cn2ccnc2)c2ccc(Cl)cc2Cl)c(Cl)c1` (stereo unspecified), the normalized intracellular growth worked out at 1.04 ± 0.03 (time point: T3 (3 h)) and 1.06 ± 0.072 (time point: Tfinal (~6 h)).
Taken in the same sequence, the figures for `Cc1cc(=O)n(-c2ccccc2)n1C` were 1.004 ± 0.0089 and 1 ± 0.023.
The corresponding values for `CO[C@H]1O[C@@H]2O[C@@]3(C)CC[C@H]4[C@H](C)CC[C@@H]([C@H]1C)[C@@]24OO3` are 0.65 ± 0.034 and 0.747 ± 0.045.
Taken in the same sequence, the figures for `NC12CC3CC(CC(C3)C1)C2` were 0.974 ± 0.046 and 0.891 ± 0.052.
Consider `CC1CCc2c(N3CCC(O)CC3)c(F)cc3c(=O)c(C(=O)O)cn1c23` (stereo unspecified), for which the normalized intracellular growth by setting is: (time point: T3 (3 h)) 0.894 ± 0.051; (time point: Tfinal (~6 h)) 0.0538 ± 0.029.
The corresponding values for `Nc1ncnc(Nc2ccc(Cl)cc2)n1` are 1.1 ± 0.074 and 0.945 ± 0.42.
Taken in the same sequence, the figures for `CN1CCN(C2=Nc3cc(Cl)ccc3Nc3ccccc32)CC1` were 0.885 ± 0.036 and 1.01 ± 0.2.
The corresponding values for `CCCCCCCCCCCCCCCC(=O)NCCO` are 1.01 ± 0.023 and 1.03 ± 0.05.
`CN1CCc2cccc3c2[C@H]1Cc1ccc(O)c(O)c1-3`: the normalized intracellular growth runs as follows: (time point: T3 (3 h)) 1.03 ± 0.022; (time point: Tfinal (~6 h)) 0.988 ± 0.059.
Taken in the same sequence, the figures for `CCC(Cc1c(I)cc(I)c(N)c1I)C(=O)O` (stereo unspecified) were 0.932 ± 0.028 and 1.14 ± 0.18.
The corresponding values for `CCC(NC(C)C)C(O)c1ccc(O)c(O)c1` (stereo unspecified) are 1 ± 0.077 and 0.903 ± 0.25.
As for `C[C@]12CC[C@@H]3c4ccc(O)cc4CC[C@H]3[C@@H]1CC[C@@H]2OC(=O)CCC1CCCC1`, the normalized intracellular growth is 1.02 ± 0.018 (time point: T3 (3 h)) and 1.3 ± 0.038 (time point: Tfinal (~6 h)).
Taken in the same sequence, the figures for `C[C@@H]1[C@H](O)[C@@H](C)/C=C/C=C/C=C/C=C/C=C/C=C/C=C/[C@H](O[C@@H]2O[C@H](C)[C@@H](O)[C@H](N)[C@@H]2O)C[C@@H]2O[C@](O)(C[C@@H](O)C[C@@H](O)[C@H](O)CC[C@@H](O)C[C@@H](O)CC(=O)O[C@H]1C)C[C@H](O)[C@H]2C(=O)O` were 1.007 ± 0.006 and 0.958 ± 0.044.
`CO[C@@]1(NC(=O)CSCC#N)C(=O)N2C(C(=O)O)=C(CSc3nnnn3C)CS[C@@H]21`: the normalized intracellular growth by setting is: (time point: T3 (3 h)) 1.02 ± 0.046; (time point: Tfinal (~6 h)) 0.808 ± 0.15.
Consider `CCOC(=O)C(C)(C)Oc1ccc(Cl)cc1`, for which the normalized intracellular growth is, setting by setting: (time point: T3 (3 h)) 0.957 ± 0.034; (time point: Tfinal (~6 h)) 0.724 ± 0.43.
Taken in the same sequence, the figures for `CC(=O)N(O)CCCCCNC(=O)CCC(=O)N(O)CCCCCNC(=O)CCC(=O)N(O)CCCCCN` were 1.01 ± 0.027 and 0.988 ± 0.037.
The corresponding values for `O=C1Cc2cc(CCN3CCN(c4nsc5ccccc45)CC3)c(Cl)cc2N1` are 0.927 ± 0.043 and 1.19 ± 0.14.
Taken in the same sequence, the figures for `CC(C)/N=c1\cc2n(-c3ccc(Cl)cc3)c3ccccc3nc-2cc1Nc1ccc(Cl)cc1` were 1.05 ± 0.063 and 1.54 ± 0.12.
Consider `CN1CC(=O)NC1=N`, for which the normalized intracellular growth turned out to be 1.03 ± 0.02 (time point: T3 (3 h)) and 1.1 ± 0.1 (time point: Tfinal (~6 h)).
Compound `CC(C)(C(=O)c1cccnc1)c1cccnc1` displayed a normalized intracellular growth (time point: T3 (3 h)) of 1.46 ± 0.13 and a normalized intracellular growth (time point: Tfinal (~6 h)) of 0.858 ± 0.15.
Taken in the same sequence, the figures for `CCC(=O)c1ccc(O)cc1` were 0.925 ± 0.049 and 1 ± 0.03.
Taken in the same sequence, the figures for `Oc1ccc(Cl)c2cccnc12` were 0.939 ± 0.09 and 0.895 ± 0.11.
The corresponding values for `Nc1c(Br)cc(Br)cc1CN[C@H]1CC[C@H](O)CC1` are 0.985 ± 0.049 and 0.934 ± 0.087.
In the case of `Cn1ccnc1S`, the normalized intracellular growth was determined as 1.08 ± 0.063 (time point: T3 (3 h)) and 0.892 ± 0.067 (time point: Tfinal (~6 h)).
Take `CC(C)(Sc1cc(C(C)(C)C)c(O)c(C(C)(C)C)c1)Sc1cc(C(C)(C)C)c(O)c(C(C)(C)C)c1`: the normalized intracellular growth (time point: T3 (3 h)) came out at 0.961 ± 0.093 and the normalized intracellular growth (time point: Tfinal (~6 h)) turned out to be 1.18 ± 0.11.
Taken in the same sequence, the figures for `COc1ccccc1N1CCN(CC(O)COc2cccc3ccccc23)CC1` (stereo unspecified) were 0.964 ± 0.054 and 1.13 ± 0.11.
The corresponding values for `CN1CCC(=C2c3ccccc3CC(=O)c3sccc32)CC1` are 0.953 ± 0.017 and 1.04 ± 0.054.
In the case of `CCN1C(=O)NC(c2ccccc2)C1=O` (stereo unspecified), the normalized intracellular growth (time point: T3 (3 h)) is 0.967 ± 0.024 and the normalized intracellular growth (time point: Tfinal (~6 h)) worked out at 0.77 ± 0.046.
The corresponding values for `CCCN(CCC)C(=O)C(CCC(=O)O)NC(=O)c1ccccc1` (stereo unspecified) are 0.972 ± 0.085 and 1.04 ± 0.2.
Taken in the same sequence, the figures for `N#CC(c1ccc(Cl)cc1)c1c(Cl)cc(-n2ncc(=O)[nH]c2=O)cc1Cl` (stereo unspecified) were 1.04 ± 0.035 and 0.865 ± 0.1.
Consider `COc1cc(OC)c(C(=O)CCCN2CCCC2)c(OC)c1`, for which the normalized intracellular growth was found to be 1.11 ± 0.12 (time point: T3 (3 h)) and 0.941 ± 0.15 (time point: Tfinal (~6 h)).
The corresponding values for `CCC(=O)OCC(=O)[C@@]1(OC(=O)CC)[C@H](C)CC2C3C([C@@H](O)C[C@@]21C)[C@@]1(C)C=CC(=O)C=C1C[C@H]3Cl` (stereo partly specified) are 1 ± 0.06 and 1.15 ± 0.12.
The corresponding values for `CC(C)(S)[C@@H](N)C(=O)O` are 0.991 ± 0.041 and 0.975 ± 0.076.
The corresponding values for `O=C(O)C1CSCN1` (stereo unspecified) are 0.997 ± 0.017 and 1.07 ± 0.084.
Regarding `CCCCCCCCCCC[C@@H](C[C@@H]1OC(=O)[C@H]1CCCCCC)OC(=O)[C@H](CC(C)C)NC=O`, the normalized intracellular growth is 0.987 ± 0.091 (time point: T3 (3 h)) and 1.21 ± 0.048 (time point: Tfinal (~6 h)).
In turn, `O=C1O[C@H](CO)[C@@H](O)[C@H](O)[C@H]1O` yielded a normalized intracellular growth (time point: T3 (3 h)) of 1.06 ± 0.059 and a normalized intracellular growth (time point: Tfinal (~6 h)) of 1.06 ± 0.06.
The corresponding values for `CC(=O)NO` are 0.913 ± 0.073 and 1.01 ± 0.016.

The values above are taken from the supplement of paper PMC6331611.
